These are yes or no findings as the source states them, for the method shown. Some results given as binding are weak or reduced against the parent protein; the word gives no strength. Tags and fused reporters may be left off the sequences shown.
Columns and labels:
Experiment in all cases: two-hybrid
[1] = biological target: T1, Schizosaccharomyces pombe Vps28 (Schizosaccharomyces pombe) (UniProt O13872)
T1 sequence: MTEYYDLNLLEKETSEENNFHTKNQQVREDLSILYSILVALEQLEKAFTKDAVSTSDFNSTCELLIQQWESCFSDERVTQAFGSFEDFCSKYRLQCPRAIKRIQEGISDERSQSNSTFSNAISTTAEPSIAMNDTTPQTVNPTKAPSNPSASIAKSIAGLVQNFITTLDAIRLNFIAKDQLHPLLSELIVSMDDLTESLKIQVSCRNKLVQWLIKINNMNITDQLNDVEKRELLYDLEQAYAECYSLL

[2] = biological target: T2, Schizosaccharomyces pombe Vps25 (Schizosaccharomyces pombe) (UniProt O74967)
T2 sequence: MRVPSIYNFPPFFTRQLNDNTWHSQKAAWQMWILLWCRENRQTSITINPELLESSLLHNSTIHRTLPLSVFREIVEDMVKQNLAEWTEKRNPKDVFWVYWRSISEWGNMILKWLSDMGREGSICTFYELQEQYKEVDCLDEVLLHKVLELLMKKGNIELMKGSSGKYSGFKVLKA

[3] = biological target: T3, Schizosaccharomyces pombe Did4 (Schizosaccharomyces pombe) (UniProt O14177)
T3 sequence: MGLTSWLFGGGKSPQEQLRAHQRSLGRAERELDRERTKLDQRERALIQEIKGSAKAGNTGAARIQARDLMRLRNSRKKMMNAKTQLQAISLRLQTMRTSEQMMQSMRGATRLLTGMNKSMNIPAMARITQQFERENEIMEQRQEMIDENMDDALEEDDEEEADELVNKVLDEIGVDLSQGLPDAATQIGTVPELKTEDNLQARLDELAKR

[4] = biological target: T4, Schizosaccharomyces pombe Vps36 (Schizosaccharomyces pombe) (UniProt O43038)
T4 sequence: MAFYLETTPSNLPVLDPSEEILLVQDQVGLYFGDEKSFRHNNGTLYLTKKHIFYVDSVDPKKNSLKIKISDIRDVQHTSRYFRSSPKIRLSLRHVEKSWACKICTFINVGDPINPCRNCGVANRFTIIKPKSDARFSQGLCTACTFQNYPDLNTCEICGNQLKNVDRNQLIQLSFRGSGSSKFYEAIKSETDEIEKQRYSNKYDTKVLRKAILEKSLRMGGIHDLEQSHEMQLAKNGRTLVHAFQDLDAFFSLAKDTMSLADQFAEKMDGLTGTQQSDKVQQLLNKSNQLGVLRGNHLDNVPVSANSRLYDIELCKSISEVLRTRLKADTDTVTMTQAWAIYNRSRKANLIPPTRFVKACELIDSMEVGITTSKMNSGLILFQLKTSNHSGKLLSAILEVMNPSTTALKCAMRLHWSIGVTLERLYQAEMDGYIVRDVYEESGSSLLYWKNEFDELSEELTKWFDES

B1: Schizosaccharomyces pombe Sst6 (protein, UniProt Q7Z992 1-487)
chain: MSDHAINEHPSRILNTIEKIRFWKNGLAEELELLFRKQCEDTFTLQAINIEVDTQDENKIEEVRIYLSTPAFDKTILTSACITVRSYYPSQPPIVQLLDEKGGKHKYTSLLLQLWKNERSVFNIYRLVQALIKQDFEREHTSPPELPTKLVNTIEKLKVKEENEAPPVIPAKPFSSSSEQHFRKVPALPSKLPPKPLKITANSSLGQETNSNSSSFQSTLFSLNTAPFSATSQQLVHDSVSLRRPSSNIPAQKPIPPKPEQNEIIITKDTPSLKDKYSKPALLPQKPKVSKGQIVQQVSVFSTGKKIESQSLLNLIDTDIETPLKGSSELLYSEDFKPNVDPVKIQQILHKQNKIIEEKWISQIRISKNLEVKQRLLDQERHALETLAKNIENNRFILGKRRRKAREALQKLDNLKDLSVQELFIIPSERELKYYELKRKDEKLDEGIRALNQALHHESIMPASWLKGIKLLARQQFLIRDEMLQYS
[1]
  binding: binds

B2: Schizosaccharomyces pombe Vps36 (protein, UniProt O43038 1-467)
chain: MAFYLETTPSNLPVLDPSEEILLVQDQVGLYFGDEKSFRHNNGTLYLTKKHIFYVDSVDPKKNSLKIKISDIRDVQHTSRYFRSSPKIRLSLRHVEKSWACKICTFINVGDPINPCRNCGVANRFTIIKPKSDARFSQGLCTACTFQNYPDLNTCEICGNQLKNVDRNQLIQLSFRGSGSSKFYEAIKSETDEIEKQRYSNKYDTKVLRKAILEKSLRMGGIHDLEQSHEMQLAKNGRTLVHAFQDLDAFFSLAKDTMSLADQFAEKMDGLTGTQQSDKVQQLLNKSNQLGVLRGNHLDNVPVSANSRLYDIELCKSISEVLRTRLKADTDTVTMTQAWAIYNRSRKANLIPPTRFVKACELIDSMEVGITTSKMNSGLILFQLKTSNHSGKLLSAILEVMNPSTTALKCAMRLHWSIGVTLERLYQAEMDGYIVRDVYEESGSSLLYWKNEFDELSEELTKWFDES
[2]
  binding: binds

B3: Schizosaccharomyces pombe Vps24 (protein, UniProt O14296 1-231)
chain: MQTVRSYFFGPTPQEQNRKWQSIIRKEQRQLDRQVYHLKAGRKKAEVQLKQLAKQSDITNMRILAKEIARANRHGKRLAESKALLGSLSLQLNDQMAMLKIQGTMQSSTKIMQDVSSLIRLPQLSETMRNLSMELTKAGVLEEMRDEMFLPVEDDEELMDLADEDEEVQEILTKYNVIPAPSEKAADAATHREQSLKQALPSLSNGIAKDSTEIDEEQLLDIRDKLDALKS
[3]
  binding: binds

B4: Schizosaccharomyces pombe Vps28 (protein, UniProt O13872 1-248)
chain: MTEYYDLNLLEKETSEENNFHTKNQQVREDLSILYSILVALEQLEKAFTKDAVSTSDFNSTCELLIQQWESCFSDERVTQAFGSFEDFCSKYRLQCPRAIKRIQEGISDERSQSNSTFSNAISTTAEPSIAMNDTTPQTVNPTKAPSNPSASIAKSIAGLVQNFITTLDAIRLNFIAKDQLHPLLSELIVSMDDLTESLKIQVSCRNKLVQWLIKINNMNITDQLNDVEKRELLYDLEQAYAECYSLL
[4]
  binding: binds

B5: Schizosaccharomyces pombe Vps20 (protein, UniProt O94318 1-226)
chain: MGVNSSKINDKDRSILSIKEQRDKLLRYSKRLEKIEQLEIDIARKCLRDSDKRGALRALKAKKLYSGLITQTYGQLGNIEQLLSTIEFTLIQKDVMFGLQEGTNLIRQLQADMPLERVGRICNDRDEAMSYVDEVNDMLQGRMSRDQEDEIQEELDSLIREQEDEKVKDLEKPGFTPSTGVDVLPSVPLKNAIPSLDESFPKAASVSNTSSAVVIDEELRKDPVLG
[2]
  binding: binds

From publication doi:10.1101/2021.08.17.456605
